Measurements reported in PubChem BioAssay AID686938 (Drosophila RNAi Screening Center, 2013)

Screen: 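Knock-downs reducing store-operated calcium influx in Drosophila cells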 (primary screen)
Cell system: Drosophila S2R+ cells
Reagent: long dsRNA against Drosophila genes, about 0.25 µg dsRNA per well, roughly 10,000 cells
Timing: 5 days of knock-down before the calcium assay
Treatment: thapsigargin (SERCA pump blocker) to empty calcium stores; entry signal taken 4 min after adding it
Detection: 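Per-well fluo-4 fluorescence in two replicates, unnormalised, measured in resting cells and 4 min after store depletion by the SERCA blocker thapsigargin; ratio of the two present in few wells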
Reading the numbers: calcium entry signal: higher = stronger calcium signal after store depletion; resting calcium signal: higher = higher resting calcium signal
Units: calcium entry signal in fluorescence units; resting calcium signal in fluorescence units
Call rule: 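Called when the plate z-score of the entry-to-rest ratio, mean of duplicates, falls below −3; wells with low overall dye signal (Fmax z below −2) or more than five off-targets excluded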
Meaning of the calls: active = strongly reduced calcium entry; inactive = no strong reduction
The screen tested about 23,000 reagents; below is an unselected part of those that have a named target and a result. In the full data, 75 (0.33%) are marked active. 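Raw plate signals without normalisation; calls rest on plate z-scores that were not deposited; ratio present for only 364 wells.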 Names joined by + are all predicted targets of the reagent. The record does not give: the dose of the treatment.

predicted target | DRSC id | calcium entry signal, replicate 1 | calcium entry signal, replicate 2 | resting calcium signal, replicate 1 | resting calcium signal, replicate 2 | outcome
CG14933 + CG42486 | DRSC02415 | 3.51e7 | 4.47e7 | 1.78e7 | 1.91e7 | inactive
Chi (Chip) | DRSC04602 | 4.66e7 | – | 2.26e7 | – | inactive
CG9459 | DRSC16496 | 3.58e7 | 4.04e7 | 1.85e7 | 2.00e7 | inactive
ppl (pumpless) | DRSC11899 | 3.25e7 | 4.35e7 | 1.59e7 | 2.93e7 | inactive
CG15118 | DRSC06540 | 2.98e7 | 2.57e7 | 1.45e7 | 1.34e7 | inactive
He + NimB5 | DRSC22876 | 4.27e7 | 3.83e7 | 2.27e7 | 1.59e7 | inactive
CG13678 | DRSC10036 | 5.32e7 | 3.50e7 | 2.78e7 | 1.82e7 | inactive
CG8138 | DRSC16386 | 2.83e7 | 4.90e7 | 1.44e7 | 6.79e7 | inactive
CG7950 + Rpp14a | DRSC16353 | 3.65e7 | 4.21e7 | 1.57e7 | 1.86e7 | inactive
CG30103 | DRSC06894 | 5.45e7 | 5.08e7 | 2.24e7 | 2.15e7 | inactive
fend (forked end) | DRSC17601 | 2.41e7 | 3.66e7 | 1.21e7 | 1.59e7 | inactive
fend (forked end) | DRSC17867 | 2.03e7 | 3.90e7 | 1.15e7 | 1.80e7 | inactive
Sld5 | DRSC14892 | 3.56e7 | 4.40e7 | 1.85e7 | 1.89e7 | inactive
Nup154 (Nucleoporin 154kD) | DRSC03384 | 2.74e7 | – | 1.76e7 | – | inactive
Dlic (Dynein light intermediate chain) | DRSC19824 | 2.78e7 | 3.43e7 | 1.33e7 | 1.58e7 | inactive
mor (moira) | DRSC15378 | 3.86e7 | 6.20e7 | 2.36e7 | 6.71e7 | inactive
CG7084 | DRSC16194 | 3.02e7 | 3.23e7 | 1.43e7 | 1.52e7 | inactive
CG1317 | DRSC08305 | 4.35e7 | 3.91e7 | 1.90e7 | 2.02e7 | inactive
CG3520 | DRSC04383 | 3.46e7 | 4.76e7 | 1.86e7 | 2.14e7 | inactive
moi + Tgs1 | DRSC16371 | 4.11e7 | 4.25e7 | 5.47e7 | 2.02e7 | inactive
VhaAC39-2 (Vacuolar H[+] ATPase AC39 subunit 2) | DRSC15609 | 4.59e7 | 6.66e7 | 2.37e7 | 2.73e7 | inactive
Rab40 | DRSC19820 | 4.92e7 | 4.76e7 | 2.22e7 | 2.41e7 | inactive
CG12880 | DRSC14568 | 3.00e7 | 4.51e7 | 1.50e7 | 1.97e7 | inactive
CG31415 | DRSC22409 | 3.12e7 | 3.11e7 | 1.58e7 | 1.40e7 | inactive
Non3 (Novel nucleolar protein 3) | DRSC16359 | 3.18e7 | 3.18e7 | 1.62e7 | 1.50e7 | inactive
CG11656 | DRSC14338 | 3.97e7 | 5.16e7 | 1.68e7 | 2.09e7 | inactive
Akr1B (Aldo-keto reductase 1B) | DRSC10581 | 3.77e7 | 3.14e7 | 2.63e7 | 1.38e7 | inactive

The list goes on, starting with the last 5 of the part before.
predicted target | DRSC id | calcium entry signal, replicate 1 | calcium entry signal, replicate 2 | resting calcium signal, replicate 1 | resting calcium signal, replicate 2 | outcome
CG12880 | DRSC14568 | 3.00e7 | 4.51e7 | 1.50e7 | 1.97e7 | inactive
CG31415 | DRSC22409 | 3.12e7 | 3.11e7 | 1.58e7 | 1.40e7 | inactive
Non3 (Novel nucleolar protein 3) | DRSC16359 | 3.18e7 | 3.18e7 | 1.62e7 | 1.50e7 | inactive
CG11656 | DRSC14338 | 3.97e7 | 5.16e7 | 1.68e7 | 2.09e7 | inactive
Akr1B (Aldo-keto reductase 1B) | DRSC10581 | 3.77e7 | 3.14e7 | 2.63e7 | 1.38e7 | inactive
exp (expansion) | DRSC06313 | 3.57e7 | 3.62e7 | 2.29e7 | 2.40e7 | inactive
Elp2 (Elongator complex protein 2) | DRSC06095 | 4.67e7 | 4.39e7 | 1.87e7 | 1.83e7 | inactive
CG32066 | DRSC10652 | 3.78e7 | 2.61e7 | 2.60e7 | 1.22e7 | inactive
CG32066 | DRSC10653 | 2.14e7 | 3.78e7 | 1.23e7 | 1.77e7 | inactive
ND-ACP | DRSC08724 | 3.31e7 | 4.00e7 | 1.44e7 | 1.57e7 | inactive
CG30268 | DRSC21983 | 1.99e7 | 3.83e7 | 1.00e7 | 1.93e7 | inactive
scpr-A + scpr-C | DRSC15737 | 3.42e7 | 3.43e7 | 1.68e7 | 1.60e7 | inactive
Uev1A (Ubiquitin-conjugating enzyme variant 1A) | DRSC09763 | 4.91e7 | 4.94e7 | 3.14e7 | 2.01e7 | inactive
trk (trunk) | DRSC03625 | 3.79e7 | 4.88e7 | 1.81e7 | 2.11e7 | inactive
CrebB (Cyclic-AMP response element binding protein B) | DRSC20232 | 4.62e7 | 3.69e7 | 2.66e7 | 1.91e7 | inactive
CG13185 | DRSC06310 | 2.11e7 | 2.07e7 | 1.07e7 | 1.18e7 | inactive
RNaseX25 (Ribonuclease X25) | DRSC11259 | 4.87e7 | 3.78e7 | 3.30e7 | 1.63e7 | inactive
CG14282 | DRSC14763 | 3.75e7 | 3.85e7 | 3.83e7 | 1.66e7 | inactive
CG6972 | DRSC16159 | 4.23e7 | 2.91e7 | 1.98e7 | 1.32e7 | inactive
CG7685 | DRSC16285 | 4.43e7 | 4.25e7 | 6.15e7 | 1.94e7 | inactive
Rrp45 | DRSC20198 | 2.14e7 | 2.12e7 | 1.45e7 | 1.36e7 | inactive
rdgC (retinal degeneration C) | DRSC11387 | 1.66e7 | 3.91e7 | 9.02e6 | 1.61e7 | inactive
CG4853 | DRSC06898 | 3.13e7 | 2.53e7 | 1.46e7 | 1.28e7 | inactive
eyg (eyegone) | DRSC11344 | 2.14e7 | 3.00e7 | 1.35e7 | 1.60e7 | inactive
eyg (eyegone) | DRSC23136 | 4.97e7 | 3.02e7 | 2.52e7 | 1.37e7 | inactive
CG10311 | DRSC14228 | 3.49e7 | 4.65e7 | 1.64e7 | 8.38e7 | inactive
CG32681 | DRSC17646 | 3.32e7 | 3.60e7 | 1.48e7 | 1.68e7 | inactive
nan (nanchung) | DRSC10551 | 4.31e7 | 5.31e7 | 1.93e7 | 2.24e7 | inactive
Sytbeta (Synaptotagmin beta) | DRSC10009 | 4.64e7 | 6.71e7 | 2.29e7 | 2.43e7 | inactive
Sytbeta (Synaptotagmin beta) | DRSC10351 | 4.16e7 | 4.37e7 | 1.82e7 | 1.61e7 | inactive
Or71a (Odorant receptor 71a) | DRSC11244 | 2.81e7 | 4.36e7 | 1.45e7 | 1.52e7 | inactive
Sans (Scaffold protein containing ankyrin repeats and SAM domain) | DRSC06357 | 3.63e7 | 3.22e7 | 1.49e7 | 1.42e7 | inactive
cona (corona) | DRSC16281 | 4.40e7 | 4.29e7 | 6.18e7 | 1.90e7 | inactive
Gr8a (Gustatory receptor 8a) | DRSC18043 | 2.96e7 | 3.87e7 | 1.52e7 | 2.03e7 | inactive
SCCRO4 (Squamous cell carcinoma-related oncogene 4) | DRSC10671 | 2.20e7 | 4.01e7 | 1.04e7 | 1.81e7 | inactive
esc (extra sexcombs) | DRSC03529 | 4.46e7 | – | 2.13e7 | – | inactive
